The target of assay [1] is T1, S. aureus ribosomal protein uS12 (S. aureus (endogenous in NCTC 8325-4)) (UniProt P0A0H0).
T1 sequence: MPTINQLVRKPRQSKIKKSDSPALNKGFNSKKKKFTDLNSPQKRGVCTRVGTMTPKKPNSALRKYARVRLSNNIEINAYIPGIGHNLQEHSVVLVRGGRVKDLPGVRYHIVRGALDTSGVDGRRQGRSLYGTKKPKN
The assay is described as follows: cryo-EM structure; FusB•Sa70S dataset: 0.5 uM S. aureus 70S, mRNA, E. coli tRNA-fMet, 15 uM FusB added less than 30 s before plunge-freezing; no EF-G, no FA; HEPES polymix; both purified.

Assay [2] concerns the target T2, S. aureus ribosomal protein uL16 (S. aureus (endogenous in NCTC 8325-4)) (UniProt Q2FW13).
T2 sequence: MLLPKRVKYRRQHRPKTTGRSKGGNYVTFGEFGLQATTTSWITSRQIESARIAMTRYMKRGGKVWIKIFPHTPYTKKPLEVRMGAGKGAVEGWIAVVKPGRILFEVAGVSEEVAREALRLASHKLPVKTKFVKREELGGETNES
The description is as above.

These are yes or no findings as the source states them, for the method shown. A result given as binding can be weak or reduced; the word gives no strength.

For S. aureus FusB (from UniProt Q8GNY5), the binding result in assay [1] and in assay [2] was “binds” in each case.

(Values after publication PMC12008383.)
